Experimental data: PubChem BioAssay AID602196 (INSERM, 2012)
This is one part, drawn at random, of about 23,000 reagents tested. 455 of all reagents (2%) count as active. 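Active includes both protection and sensitisation; some change values fall well beyond the stated -50 to +50 range.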 Reagent sequences are not shown. Not stated in the record: the amount of reagent.

- Purpose: 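Knock-downs that protect lung cancer cells from cisplatin or sensitise them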
- System: human A549 lung cancer cells
- Reagent: siRNA pair against human genes
- Time to read-out: 48 h transfection before cisplatin; time from cisplatin to read-out not stated
- Challenge: cisplatin at a dose killing half of control-siRNA cells; exact dose and duration not given
- Measured: 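Shift in cisplatin death relative to control siRNA, from -50 (all cells die) to +50 (no cells die); siRNAs harmful on their own scored 0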
- Reading the numbers: two-siRNA summed score (-2 to +2): higher = both siRNAs protect from cisplatin killing; -2 means both sensitise; mean protection from cisplatin (shift in death) and protection from cisplatin (shift in death), siRNA C and protection from cisplatin (shift in death), siRNA D: higher = protection from cisplatin killing
- Rule for the call: 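siRNAs harmful alone (LDH or WST-1) get 0; others get +1 for less and -1 for more cisplatin killing; genes are active when the two siRNAs give the same sign, summing to ±2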
- Calls: active = both siRNAs shift cisplatin killing the same way; inactive = no consistent shift, or siRNA harmful alone

gene symbol | two-siRNA summed score (-2 to +2) | mean protection from cisplatin (shift in death) (%) | protection from cisplatin (shift in death), siRNA C (%) | protection from cisplatin (shift in death), siRNA D (%) | outcome
FLJ20719 | 0 | 13.8 | 15.1 | 12.5 | inactive
CNGA4 | 0 | -8.9 | -3.5 | -14.2 | inactive
PDAP1 | -1 | -3.5 | -10 | 3.1 | inactive
LOC154323 | 0 | 2.6 | 1.7 | 3.5 | inactive
NF2 | 0 | -3.1 | -8.7 | 2.6 | inactive
PTPRZ1 | 0 | 7.9 | 5.9 | 10 | inactive
LOC402522 | -1 | -6.5 | -16.7 | 3.8 | inactive
JRKL | 0 | 1 | -5.7 | 7.7 | inactive
LOC283999 | 0 | 1.9 | -6.7 | 10.5 | inactive
TBATA | 0 | 4.7 | 3.2 | 6.2 | inactive
LOC441167 (retired record) | 1 | 7.9 | 10 | 5.8 | inactive
MPP4 | 0 | 5.4 | 6.5 | 4.3 | inactive
ZNF148 | 1 | 12.9 | 5.5 | 20.3 | inactive
ASGR1 | 0 | 23 | 41.7 | 4.2 | inactive
LOC440523 | 1 | 17.9 | 12 | 23.8 | inactive
DZANK1 | 0 | -2.2 | -0.2 | -4.1 | inactive
ANKHD1-EIF4EBP3 | 0 | 18.5 | 19.9 | 17.1 | inactive
LOC391776 | 0 | 3 | -3 | 9 | inactive
LOC391353 | -1 | -11.1 | -6.3 | -15.9 | inactive
WDR33 | 0 | 2.4 | -8.8 | 13.6 | inactive
SCHIP1 | 0 | 8.2 | 11.1 | 5.3 | inactive
LOC388969 | 0 | 15.7 | -4.7 | 36.1 | inactive
FBXO34 | 0 | -3.1 | 4.3 | -10.4 | inactive
LOC401713 | 0 | 12.9 | 6.8 | 18.9 | inactive
INAVA | 0 | 15.8 | 25.1 | 6.5 | inactive
KIAA1217 | 0 | 10.6 | 13.7 | 7.6 | inactive
LCN2 | 1 | 13.4 | 15.7 | 11.2 | inactive
ANKS3 | 0 | 3.5 | -0.9 | 7.9 | inactive
MIOX | 0 | -0.8 | 13.2 | -14.8 | inactive
BARHL1 | 0 | -1.7 | -7.9 | 4.5 | inactive
PHLDA3 | 1 | 25.6 | 23.4 | 27.7 | inactive
MROH7 | 0 | 17.6 | 21.1 | 14.1 | inactive
CFAP68 | 0 | -3.4 | -5.7 | -1.2 | inactive
ISM2 | 0 | 3.1 | 3 | 3.2 | inactive
CDCA8 | 0 | 0.2 | -3.5 | 4 | inactive
RNF6 | 0 | -2.4 | 9.6 | -14.4 | inactive
LAMB1 | -1 | -2 | 20.5 | -24.5 | inactive
ZMAT1 | 0 | 3.5 | 1.8 | 5.2 | inactive
MAPRE1 | 0 | -10.7 | -8.4 | -13 | inactive

Reprinted from the listing (3 entries):
gene symbol | two-siRNA summed score (-2 to +2) | mean protection from cisplatin (shift in death) (%) | protection from cisplatin (shift in death), siRNA C (%) | protection from cisplatin (shift in death), siRNA D (%) | outcome
LOC154323 | 0 | 2.6 | 1.7 | 3.5 | inactive
NF2 | 0 | -3.1 | -8.7 | 2.6 | inactive
PTPRZ1 | 0 | 7.9 | 5.9 | 10 | inactive
